## Primary screen of a compound library

Chains of the proteins cited; added tags and fusions are not shown. Residues count along the entry.
UniProt Q4DA54, 1-478: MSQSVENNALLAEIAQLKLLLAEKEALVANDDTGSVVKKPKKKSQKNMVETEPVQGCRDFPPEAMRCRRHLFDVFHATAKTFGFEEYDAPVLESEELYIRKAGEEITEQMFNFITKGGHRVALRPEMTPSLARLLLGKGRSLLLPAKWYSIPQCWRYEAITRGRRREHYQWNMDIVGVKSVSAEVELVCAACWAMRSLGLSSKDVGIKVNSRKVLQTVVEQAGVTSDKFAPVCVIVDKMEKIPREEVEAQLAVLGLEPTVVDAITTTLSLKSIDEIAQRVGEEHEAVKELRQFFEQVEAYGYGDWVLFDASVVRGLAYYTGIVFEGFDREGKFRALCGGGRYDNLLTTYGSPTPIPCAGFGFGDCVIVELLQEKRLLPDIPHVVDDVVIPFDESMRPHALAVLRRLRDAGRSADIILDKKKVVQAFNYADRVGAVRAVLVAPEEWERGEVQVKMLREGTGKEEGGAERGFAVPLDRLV
UniProt P9WFT3, whole entry: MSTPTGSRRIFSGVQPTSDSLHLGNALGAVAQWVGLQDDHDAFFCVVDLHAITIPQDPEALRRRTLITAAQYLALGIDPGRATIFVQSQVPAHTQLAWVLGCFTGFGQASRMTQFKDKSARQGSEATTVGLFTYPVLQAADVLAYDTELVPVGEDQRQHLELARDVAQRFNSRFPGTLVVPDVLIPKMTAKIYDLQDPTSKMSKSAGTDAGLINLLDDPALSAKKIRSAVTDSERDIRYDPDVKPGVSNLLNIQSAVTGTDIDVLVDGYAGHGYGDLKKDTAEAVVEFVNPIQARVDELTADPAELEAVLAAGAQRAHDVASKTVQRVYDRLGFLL
UniProt I6X8D2, whole entry: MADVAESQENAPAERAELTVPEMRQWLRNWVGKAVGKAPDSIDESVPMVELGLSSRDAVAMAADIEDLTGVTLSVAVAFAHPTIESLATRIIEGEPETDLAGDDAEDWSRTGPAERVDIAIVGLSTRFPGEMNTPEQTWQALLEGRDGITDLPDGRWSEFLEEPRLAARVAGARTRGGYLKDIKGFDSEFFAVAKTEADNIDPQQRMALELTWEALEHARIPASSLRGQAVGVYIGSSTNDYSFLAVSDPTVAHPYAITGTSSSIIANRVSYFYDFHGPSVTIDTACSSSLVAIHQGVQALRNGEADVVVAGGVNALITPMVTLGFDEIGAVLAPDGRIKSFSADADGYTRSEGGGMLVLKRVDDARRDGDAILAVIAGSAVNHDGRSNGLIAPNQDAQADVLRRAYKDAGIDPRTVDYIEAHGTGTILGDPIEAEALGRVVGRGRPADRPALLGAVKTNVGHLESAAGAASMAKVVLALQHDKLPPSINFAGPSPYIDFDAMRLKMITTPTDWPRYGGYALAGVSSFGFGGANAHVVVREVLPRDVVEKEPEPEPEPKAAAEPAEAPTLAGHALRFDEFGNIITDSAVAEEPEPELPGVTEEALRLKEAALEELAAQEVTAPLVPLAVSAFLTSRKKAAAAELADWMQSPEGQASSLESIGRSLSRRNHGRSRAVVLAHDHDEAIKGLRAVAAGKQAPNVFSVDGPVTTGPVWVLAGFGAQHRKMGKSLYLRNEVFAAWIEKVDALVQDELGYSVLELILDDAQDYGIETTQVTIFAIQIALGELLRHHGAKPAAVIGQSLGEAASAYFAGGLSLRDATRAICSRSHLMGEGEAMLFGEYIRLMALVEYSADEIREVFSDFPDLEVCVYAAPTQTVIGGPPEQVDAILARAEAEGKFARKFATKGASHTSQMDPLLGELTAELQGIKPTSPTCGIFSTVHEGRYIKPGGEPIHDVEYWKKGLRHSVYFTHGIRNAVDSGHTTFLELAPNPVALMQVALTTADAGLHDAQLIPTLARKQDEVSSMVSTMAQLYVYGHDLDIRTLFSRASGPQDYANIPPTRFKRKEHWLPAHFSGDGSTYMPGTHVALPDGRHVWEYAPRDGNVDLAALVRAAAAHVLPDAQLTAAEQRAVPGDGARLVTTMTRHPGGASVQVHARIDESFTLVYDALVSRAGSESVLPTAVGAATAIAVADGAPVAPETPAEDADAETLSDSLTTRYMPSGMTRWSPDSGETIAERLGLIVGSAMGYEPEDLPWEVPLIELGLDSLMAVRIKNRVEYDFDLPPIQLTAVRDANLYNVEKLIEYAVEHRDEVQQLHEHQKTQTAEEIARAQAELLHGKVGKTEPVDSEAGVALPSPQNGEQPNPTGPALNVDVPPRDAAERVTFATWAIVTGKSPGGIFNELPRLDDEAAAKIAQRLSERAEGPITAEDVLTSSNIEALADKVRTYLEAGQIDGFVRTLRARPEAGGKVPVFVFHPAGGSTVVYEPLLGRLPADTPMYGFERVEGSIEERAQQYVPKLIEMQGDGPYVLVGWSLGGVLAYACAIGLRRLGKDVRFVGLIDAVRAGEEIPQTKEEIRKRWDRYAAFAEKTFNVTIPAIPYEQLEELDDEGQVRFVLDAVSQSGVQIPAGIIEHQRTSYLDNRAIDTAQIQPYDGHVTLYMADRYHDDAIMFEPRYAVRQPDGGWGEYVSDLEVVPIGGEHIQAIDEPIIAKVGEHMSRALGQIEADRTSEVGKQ
UniProt Q8IDJ8, 1-583: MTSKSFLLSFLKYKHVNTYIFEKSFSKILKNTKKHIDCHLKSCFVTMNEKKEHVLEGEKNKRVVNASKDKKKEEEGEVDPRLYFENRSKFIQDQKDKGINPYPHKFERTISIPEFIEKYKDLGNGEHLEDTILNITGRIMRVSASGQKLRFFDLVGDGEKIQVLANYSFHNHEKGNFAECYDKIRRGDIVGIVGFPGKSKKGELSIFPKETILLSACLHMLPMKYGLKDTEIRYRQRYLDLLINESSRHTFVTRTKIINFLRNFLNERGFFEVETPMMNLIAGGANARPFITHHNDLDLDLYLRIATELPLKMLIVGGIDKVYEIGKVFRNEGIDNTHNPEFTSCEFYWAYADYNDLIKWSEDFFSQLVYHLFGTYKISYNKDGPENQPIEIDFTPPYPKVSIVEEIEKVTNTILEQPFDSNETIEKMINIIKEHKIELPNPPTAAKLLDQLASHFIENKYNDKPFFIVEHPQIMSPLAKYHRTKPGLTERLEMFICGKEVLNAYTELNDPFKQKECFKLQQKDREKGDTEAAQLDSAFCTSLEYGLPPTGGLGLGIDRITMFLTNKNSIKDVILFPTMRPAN

TcHisRS: 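Histidine-tRNA ligase, Trypanosoma cruzi CL Brener (UniProt Q4DA54). Enzyme assay of histidyl-tRNA synthetase; the read-out is not stated. Tested at 30 µM. Direction is inferred from retests: higher values go with stronger inhibition. About 69,000 compounds were tested under these conditions; 0.045% (about 31) showed 50% or more at least once.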
MtTrpRS: 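Enzyme assay of tryptophanyl-tRNA synthetase; the read-out is not stated. Target: Tryptophan-tRNA ligase, Mycobacterium tuberculosis (UniProt P9WFT3). Tested at 10 µM. Direction is not recorded; retested compounds ran higher, which suggests that high means inhibition. Size under these conditions: about 65,000 compounds, about 64 of them at 50% or above in at least one test.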
Pks13 thioesterase: 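Enzyme assay of the thioesterase domain of polyketide synthase 13; the read-out is not stated. Target: Polyketide synthase Pks13, Mycobacterium tuberculosis (UniProt I6X8D2). Compounds at 30 µM. The record gives no direction; the compounds picked for IC50 retests had high values, so higher reads as stronger inhibition. Size under these conditions: about 67,000 compounds, about 300 of them at 50% or above in at least one test.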
PfKRS1: 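Lysine-tRNA ligase, Plasmodium falciparum 3D7 (UniProt Q8IDJ8). Enzyme assay of the cytosolic lysyl-tRNA synthetase in 384-well plates, read by luminescence. Concentration: 30 µM. Higher reads as stronger inhibition, judged from the few compounds that gave an IC50. Size under these conditions: about 69,000 compounds, about 49 of them at 50% or above in at least one test.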
Toxoplasma: 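Assay of Toxoplasma gondii numbers, read through their beta-galactosidase reporter with a colour substrate. Compounds at 10 µM. Higher reads as fewer parasites (inferred from which compounds were picked for retests). Size under these conditions: about 67,000 compounds, about 260 of them at 50% or above in at least one test.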

Each number is a percent effect as filed. The record does not define 0% and 100%; most values in the screen are far below 50% and negative numbers occur (in some assays of this library far below -100). This is an unselected part of the compounds tested. A dash means the value is not listed here; it may have been measured.

structure	TcHisRS	MtTrpRS	Pks13 thioesterase	PfKRS1	Toxoplasma
CCc1cnc(N2CCC3(CCN(Cc4cccc(C)c4)C3=O)C2)nc1 (stereo not shown)	5.825%	-5.959%	-17.61%	0.5059%	-9.283%
Cc1nc(C(C)C)sc1C(=O)N1CCC(C(N)=O)CC1	11%	4.258%	9.271%	-0.8213%	3.998%
COc1ccc([C@@H]2C[C@H](NC(C)=O)C[C@H](CCc3ccccc3)O2)cn1	4.469%	-2.183%	-25.66%	3.537%	6.343%
CC1CCN(C(=O)C(C)N2CCN(c3nccs3)CC2)CC1 (stereo not shown)	7.328%	2.449%	-14.71%	4.057%	5.39%
CCC1=N[C@@]2(CC[C@@H]3CN(CC(=O)N(C)C)C[C@@H]32)C(=O)N1CC1CC1	-3.825%	5.829%	-21.57%	2.997%	-
CCC(NC1Cc2ccccc2C1)c1ccc(S(C)(=O)=O)cc1 (stereo not shown)	9.453%	-7.674%	-27.32%	3.516%	-14.06%
CCS(=O)(=O)N1Cc2[nH]nc(COCc3cccnc3)c2C1.O=C(O)C(F)(F)F	-	-	-	-	8.913%
O=C1CN(C(=O)CNC(CC(F)(F)F)c2ccc(F)cc2)CCN1 (stereo not shown)	-6.748%	1.414%	12.85%	2.02%	-9.231%
Cc1cccc2nc(CN3CCCC3Cn3cccn3)cn12 (stereo not shown)	12.43%	-2.086%	-5.876%	-0.3018%	2.48%
Cc1nc(C(=O)N2CCc3c(nc(-c4ccncc4)[nH]c3=O)C2)cs1	-1.653%	-5.263%	-	1.19%	-6.189%
Cc1nc(CN2CCO[C@@H]3CNCC[C@@H]3C2)cs1	5.785%	-0.1744%	-21.99%	9.178%	-
Cc1cnc(C(=O)N2C[C@H]3CN(Cc4cccnc4)C[C@H]3C2)cn1	12.4%	0.3487%	-17.59%	8.828%	-
C[C@@H]1CN(C(=O)c2c[nH]c(=O)c(Cl)c2)CC[C@@]1(O)C1CCOCC1	-0.5025%	1.087%	-16.35%	2.39%	15.17%
Cc1ccoc1C(=O)N1C[C@@H](N2CCN(C)CC2)[C@H]2OCCC[C@H]21	8.046%	-2.705%	-3.437%	5.179%	-
Cc1cc(NCCNS(=O)(=O)c2cn(C)nc2C)c2ccccc2n1	3.876%	-4.052%	6.295%	2.246%	6.479%
Cc1ccc(C(=O)N2CCC(c3nccn3C(C)C)CC2)c(=O)[nH]1	-2.513%	2.101%	-11.31%	4.13%	-10.87%
FC(F)(F)c1nc(NC2CCc3ncnn3C2)c2ccccc2n1 (stereo not shown)	0.5291%	8.49%	-4.609%	4.07%	-9.442%
Nc1nccnc1CC1CCCN(Cc2ccnc3ccccc23)C1 (stereo not shown)	5.385%	-0.4755%	125.7%	1.22%	-
COC1CCN(C(=O)CCn2ccc(=O)[nH]c2=O)CC1	3.093%	6.915%	3.955%	5.942%	-9.266%
CCC1CN(C)c2ccccc2CN1C(=O)Nc1cccc(F)c1 (stereo not shown)	9.231%	6.692%	-4.111%	-0.3673%	11.2%
Cc1[nH]ccc1C(=O)N(Cc1ccc(O)cc1)CC1CC1	0.9804%	-1.1%	-25.7%	6.126%	8.649%
COc1cccc(S(=O)(=O)NC(=O)COC2CCCCC2)c1	4.598%	0%	4.554%	1.677%	4.615%
Cn1cc(CN2CCC3(CCN(c4cnn(C)c4)C3=O)C2)cn1.O=C(O)C(F)(F)F (stereo not shown)	-	-	-	-	0.2941%
CN(C)C(=O)c1nc(CN2CC(c3ccccc3)CC2=O)no1 (stereo not shown)	1.478%	8.135%	0.442%	6.6%	-2.616%
CC(C)NC(=O)CC1COC2(CCN(Cc3ccccc3)CC2)C1 (stereo not shown)	4.511%	2.214%	-3.408%	5.423%	-
O=C(O)C(F)(F)F.[H][C@]12CCN(c3ncccn3)[C@@]1([H])CC[C@@H](COCc1csc(C)n1)O2	-	-	-	-	-0.1664%
Cc1ccc2c(c1)c(C)cc(=O)n2CCCN	4.663%	0.08333%	-18.97%	4.846%	5.209%
COCCS(=O)(=O)N(Cc1ccsc1)c1ccccc1	4.255%	1.729%	-12.15%	3.855%	-1.495%
Cc1ccccc1CCCN1C(=O)CC2(CCSC2)C1=O (stereo not shown)	4.04%	2.249%	8.333%	1.643%	7.375%
N#CCCCS(=O)(=O)N1CCCC1CC(=O)c1cccs1 (stereo not shown)	2.5%	1.316%	-8.25%	1.665%	0.8078%
[H][C@@]12CN(Cc3ccccn3)C[C@]1([H])CN(C(=O)C1CCOC1)C2 (stereo partly shown)	-	-	-	-	2.205%
CCn1nc2c(cc1=O)CN(Cc1cc(C)on1)CC2	-15.22%	-2.422%	7.84%	0.2062%	-4.792%
CC(C)c1ccc(NC2CCCN(Cc3ccncc3)C2)cc1 (stereo not shown)	-0.9662%	-2.026%	1.361%	3.614%	16.57%
CCOc1ccccc1C1CCCN1 (stereo not shown)	1.087%	7.521%	-31.4%	-0.7313%	-
CC(C)n1nccc1NC(=O)CN1CCc2sccc2C1	8.173%	3.267%	6.54%	1.274%	12.38%
Cc1cnn(CCC(=O)N2C[C@H]3CC[C@@H]2CN(CC(=O)N(C)C)C3)c1	1.667%	0.0774%	-18.11%	-2.775%	-
CCOCC(O)CN1CCN(C(=O)Cc2ccc3c(c2)CCC3)CC1 (stereo not shown)	2.367%	28.81%	-	-5.116%	-44.82%
Cc1ccc(CN2CCOCS2(=O)=O)cc1F	3.518%	0.8804%	-5.538%	5.687%	11.44%
CC(C)(C)CN1CC[C@H](c2nnc(Cc3c[nH]c4ccccc34)o2)C1	3.483%	-0.5339%	-	3.046%	-3.198%
Cc1cccc(OC2CCN(S(=O)(=O)Cc3cccc(F)c3)CC2)n1	-6.341%	-3.391%	-22.08%	7.537%	-11.28%
O=C(O)C(F)(F)F.[H][C@@]12CN(CCOC)C[C@]1([H])[C@@H](OC)CCN2C(=O)Cc1ccccc1	-	-	-	-	4.198%
Cn1nccc1C1CCN(Cc2csc(-c3ncccn3)n2)CC1	1.916%	-2.624%	-5.323%	1.694%	6.677%
CCC(CO)N(CC=C(C)C)Cc1ccsc1 (stereo not shown)	7.514%	-9.461%	-8.099%	3.506%	-3.875%
Cc1cccc(-n2cnc(Cl)c2CO)c1	9.091%	-2.194%	-6.133%	1.314%	18.06%
CC(SCC(=O)NCCC#N)c1ccc(Cl)cc1 (stereo not shown)	-2.463%	3.816%	-19.98%	8.052%	-4.607%
COc1ccccc1OC1(C(=O)O)CCN(c2cc(C)nc(C)c2)CC1	1.961%	-1.354%	26.38%	5.554%	-17.2%
Cc1cnc(N2CC3(CCN(Cc4cccnc4)C3)C2)nc1.O=C(O)C(F)(F)F.O=C(O)C(F)(F)F	-	-	-	-	-1.96%
CCOC(C)C(=O)Nc1ccc(Sc2nncn2C)c(Cl)c1 (stereo not shown)	-2.062%	1.63%	-6.092%	3.791%	6.608%
CC(=O)c1cccc(OCCCC(=O)N(C)Cc2cccc(O)c2)c1	-1.667%	0.5418%	-23.01%	-0.37%	2.193%
Nc1ncc(-c2ccc(NC(=O)[C@@H]3CCCCN3)cc2)cn1	4.52%	-	-8.217%	4.564%	-2.903%
CC(C)(C)n1ncc2c(=O)[nH]c(N3CC(O)C3)nc21	1.622%	1.19%	-18.8%	-1.299%	11.09%
CC(=O)Nc1nc(C(=O)N2CCCC2Cn2cccn2)cs1 (stereo not shown)	4.956%	-1.003%	-10.32%	1.504%	-3.601%
CC(NCC1(N(C)C)CCOCC1)c1ccc(SC(F)F)cc1 (stereo not shown)	0%	1.06%	-4.069%	2.812%	10.77%
O=C(CCNC(=O)N1CCC(c2ccccc2)C1)N1CCCCC1 (stereo not shown)	5.128%	0.6583%	-13.36%	-0.1777%	6.436%
CN1CCOC(CN(C(=O)CCc2ccco2)c2nccs2)C1 (stereo not shown)	0%	10.6%	-21.97%	-1.26%	-8.565%
CCOC(=O)C(CO)NC(=O)CCc1cccc(OC2CCCC2)c1 (stereo not shown)	0%	-3.534%	3.234%	-1.533%	-13.7%
CNC(=O)[C@H]1C[C@@H]2CN(C(=O)c3cnc(C)cn3)C[C@@H]2N1C	3.093%	-9.076%	-22.16%	4.066%	-
Cc1cc(C(=O)NC(C)Cc2cccc(Cl)c2)n(C)n1 (stereo not shown)	0.8929%	3.265%	-11.04%	7.763%	-6.938%
CCn1cc(NC(=O)c2c(C)nn(C)c2C)c(C(N)=O)n1	5.699%	-1.583%	-3.694%	1.57%	1.508%

Data taken from ChEMBL document CHEMBL3988442, “University of Dundee, Small-Polar-MMV Screening Library” (2021).